Results taken from the supplement of paper PMC10849652.
Some of the results follow.

By UniProt entry, the sequences of proteins in these tests, tags left out. Where a name states a change or a piece, a line headed by the entry shows the natural chain unless it says otherwise.
UniProt A6NFQ2: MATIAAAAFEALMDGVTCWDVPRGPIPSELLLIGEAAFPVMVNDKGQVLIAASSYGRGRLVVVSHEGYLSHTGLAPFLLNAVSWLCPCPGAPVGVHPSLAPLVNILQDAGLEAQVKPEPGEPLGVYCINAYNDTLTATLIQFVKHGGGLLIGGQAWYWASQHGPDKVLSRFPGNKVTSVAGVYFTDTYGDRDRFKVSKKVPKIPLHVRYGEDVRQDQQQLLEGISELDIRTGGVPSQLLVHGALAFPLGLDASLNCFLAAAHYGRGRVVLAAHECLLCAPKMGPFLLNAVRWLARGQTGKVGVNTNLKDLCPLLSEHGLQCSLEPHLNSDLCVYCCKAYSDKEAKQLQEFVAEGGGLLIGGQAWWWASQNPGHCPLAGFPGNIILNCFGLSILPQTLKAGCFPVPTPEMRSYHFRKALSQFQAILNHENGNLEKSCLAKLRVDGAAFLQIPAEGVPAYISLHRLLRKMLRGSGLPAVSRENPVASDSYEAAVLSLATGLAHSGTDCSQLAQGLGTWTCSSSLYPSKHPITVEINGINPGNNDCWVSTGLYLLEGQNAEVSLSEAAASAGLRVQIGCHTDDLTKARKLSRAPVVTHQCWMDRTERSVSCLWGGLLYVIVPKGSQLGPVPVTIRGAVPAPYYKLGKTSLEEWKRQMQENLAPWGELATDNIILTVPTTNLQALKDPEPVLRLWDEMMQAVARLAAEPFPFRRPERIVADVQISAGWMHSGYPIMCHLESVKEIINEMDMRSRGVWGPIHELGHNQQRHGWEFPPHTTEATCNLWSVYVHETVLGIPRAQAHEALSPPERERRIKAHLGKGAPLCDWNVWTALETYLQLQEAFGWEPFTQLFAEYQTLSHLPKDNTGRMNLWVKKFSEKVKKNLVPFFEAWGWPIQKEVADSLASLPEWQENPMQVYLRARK
UniProt Q8N9U0: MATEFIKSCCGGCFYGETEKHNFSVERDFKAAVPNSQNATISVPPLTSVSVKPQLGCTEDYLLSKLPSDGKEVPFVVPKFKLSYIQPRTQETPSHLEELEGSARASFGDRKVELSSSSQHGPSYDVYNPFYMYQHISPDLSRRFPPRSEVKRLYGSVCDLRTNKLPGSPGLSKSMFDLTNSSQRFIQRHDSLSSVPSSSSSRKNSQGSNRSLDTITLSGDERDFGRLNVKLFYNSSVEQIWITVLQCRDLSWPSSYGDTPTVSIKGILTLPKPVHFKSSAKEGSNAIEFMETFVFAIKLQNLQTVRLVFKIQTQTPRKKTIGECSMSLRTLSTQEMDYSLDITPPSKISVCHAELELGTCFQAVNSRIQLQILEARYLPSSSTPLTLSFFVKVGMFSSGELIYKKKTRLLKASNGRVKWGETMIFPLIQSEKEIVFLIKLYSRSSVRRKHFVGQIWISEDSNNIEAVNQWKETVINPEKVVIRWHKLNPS
UniProt Q8TEA7: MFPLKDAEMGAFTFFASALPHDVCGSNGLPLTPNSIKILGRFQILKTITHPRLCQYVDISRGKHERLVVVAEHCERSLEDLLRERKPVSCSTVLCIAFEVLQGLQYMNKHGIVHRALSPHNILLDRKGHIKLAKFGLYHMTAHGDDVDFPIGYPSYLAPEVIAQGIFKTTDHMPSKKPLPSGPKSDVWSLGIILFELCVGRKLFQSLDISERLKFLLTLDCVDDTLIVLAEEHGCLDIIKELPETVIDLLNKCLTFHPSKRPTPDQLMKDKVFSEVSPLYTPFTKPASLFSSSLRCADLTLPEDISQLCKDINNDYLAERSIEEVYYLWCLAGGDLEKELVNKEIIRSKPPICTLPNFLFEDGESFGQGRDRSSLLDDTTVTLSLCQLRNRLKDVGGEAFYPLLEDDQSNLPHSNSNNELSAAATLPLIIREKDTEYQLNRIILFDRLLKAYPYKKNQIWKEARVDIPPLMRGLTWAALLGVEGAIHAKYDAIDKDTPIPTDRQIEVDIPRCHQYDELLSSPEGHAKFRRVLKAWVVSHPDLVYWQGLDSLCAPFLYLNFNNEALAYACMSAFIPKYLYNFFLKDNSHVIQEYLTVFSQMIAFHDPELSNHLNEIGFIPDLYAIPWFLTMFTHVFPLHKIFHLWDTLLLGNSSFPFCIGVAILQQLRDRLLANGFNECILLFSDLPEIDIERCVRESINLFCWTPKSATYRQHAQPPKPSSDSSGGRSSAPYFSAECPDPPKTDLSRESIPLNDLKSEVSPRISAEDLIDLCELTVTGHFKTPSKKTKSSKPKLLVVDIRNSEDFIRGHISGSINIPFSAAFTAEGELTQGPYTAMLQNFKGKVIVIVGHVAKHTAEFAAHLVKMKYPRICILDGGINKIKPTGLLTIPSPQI
UniProt Q9NUW8, whole entry, looked up: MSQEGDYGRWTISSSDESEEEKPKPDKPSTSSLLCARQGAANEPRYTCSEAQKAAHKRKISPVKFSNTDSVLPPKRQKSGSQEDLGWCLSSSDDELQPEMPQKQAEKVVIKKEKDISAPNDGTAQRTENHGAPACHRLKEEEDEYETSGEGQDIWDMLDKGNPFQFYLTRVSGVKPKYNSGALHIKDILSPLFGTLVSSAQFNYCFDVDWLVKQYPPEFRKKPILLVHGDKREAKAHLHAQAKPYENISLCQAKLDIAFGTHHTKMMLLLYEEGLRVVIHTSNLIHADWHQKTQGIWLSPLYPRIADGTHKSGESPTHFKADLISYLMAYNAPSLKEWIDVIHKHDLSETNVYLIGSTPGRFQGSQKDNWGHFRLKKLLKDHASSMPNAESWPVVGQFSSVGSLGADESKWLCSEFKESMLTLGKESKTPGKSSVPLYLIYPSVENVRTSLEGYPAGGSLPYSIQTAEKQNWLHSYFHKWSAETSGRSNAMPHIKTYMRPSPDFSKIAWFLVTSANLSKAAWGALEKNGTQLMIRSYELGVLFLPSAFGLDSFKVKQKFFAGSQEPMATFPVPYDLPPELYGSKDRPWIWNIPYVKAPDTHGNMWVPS
UniProt Q96N21: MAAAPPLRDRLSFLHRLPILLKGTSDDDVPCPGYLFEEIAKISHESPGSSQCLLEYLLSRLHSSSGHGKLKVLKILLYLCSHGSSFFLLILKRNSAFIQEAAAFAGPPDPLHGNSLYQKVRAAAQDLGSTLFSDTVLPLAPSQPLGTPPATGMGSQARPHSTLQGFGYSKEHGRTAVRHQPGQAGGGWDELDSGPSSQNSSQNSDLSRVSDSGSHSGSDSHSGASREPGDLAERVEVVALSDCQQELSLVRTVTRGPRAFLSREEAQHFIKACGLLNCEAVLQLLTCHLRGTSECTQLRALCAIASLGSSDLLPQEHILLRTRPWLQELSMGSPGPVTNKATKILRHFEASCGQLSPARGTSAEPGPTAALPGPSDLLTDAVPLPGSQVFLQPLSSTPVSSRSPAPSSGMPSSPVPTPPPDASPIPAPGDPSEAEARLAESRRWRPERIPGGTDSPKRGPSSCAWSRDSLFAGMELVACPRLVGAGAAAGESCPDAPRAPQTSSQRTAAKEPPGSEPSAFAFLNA
UniProt Q13488, whole entry, looked up: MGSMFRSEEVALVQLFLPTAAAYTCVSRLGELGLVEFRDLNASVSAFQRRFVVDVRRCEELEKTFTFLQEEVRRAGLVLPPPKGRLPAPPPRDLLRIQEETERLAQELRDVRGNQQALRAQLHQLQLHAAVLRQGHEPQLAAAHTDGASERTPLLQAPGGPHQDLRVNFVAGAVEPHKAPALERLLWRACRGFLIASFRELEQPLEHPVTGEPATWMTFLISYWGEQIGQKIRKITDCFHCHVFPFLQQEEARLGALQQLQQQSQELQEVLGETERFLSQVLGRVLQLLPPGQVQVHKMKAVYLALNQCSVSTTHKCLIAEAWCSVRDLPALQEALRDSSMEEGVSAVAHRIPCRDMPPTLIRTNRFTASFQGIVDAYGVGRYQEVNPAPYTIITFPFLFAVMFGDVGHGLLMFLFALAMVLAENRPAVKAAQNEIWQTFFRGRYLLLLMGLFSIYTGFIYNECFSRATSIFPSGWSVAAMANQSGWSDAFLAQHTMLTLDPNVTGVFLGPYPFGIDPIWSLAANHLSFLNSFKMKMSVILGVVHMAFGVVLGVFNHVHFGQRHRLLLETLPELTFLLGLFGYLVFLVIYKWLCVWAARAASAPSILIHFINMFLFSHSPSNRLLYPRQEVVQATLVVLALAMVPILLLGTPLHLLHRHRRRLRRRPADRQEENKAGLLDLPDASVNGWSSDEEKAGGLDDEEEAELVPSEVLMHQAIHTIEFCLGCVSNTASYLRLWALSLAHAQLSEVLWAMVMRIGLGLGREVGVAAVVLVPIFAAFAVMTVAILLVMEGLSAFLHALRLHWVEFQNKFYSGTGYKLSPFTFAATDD
UniProt Q8TBR7: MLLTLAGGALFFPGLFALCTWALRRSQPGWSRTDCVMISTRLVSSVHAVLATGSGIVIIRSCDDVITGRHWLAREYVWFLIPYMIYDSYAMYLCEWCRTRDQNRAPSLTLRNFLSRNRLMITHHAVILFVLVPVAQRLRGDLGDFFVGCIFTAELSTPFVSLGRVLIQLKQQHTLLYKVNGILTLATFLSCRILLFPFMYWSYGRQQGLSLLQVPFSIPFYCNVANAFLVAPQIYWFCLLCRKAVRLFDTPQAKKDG
UniProt P20226, whole entry, looked up: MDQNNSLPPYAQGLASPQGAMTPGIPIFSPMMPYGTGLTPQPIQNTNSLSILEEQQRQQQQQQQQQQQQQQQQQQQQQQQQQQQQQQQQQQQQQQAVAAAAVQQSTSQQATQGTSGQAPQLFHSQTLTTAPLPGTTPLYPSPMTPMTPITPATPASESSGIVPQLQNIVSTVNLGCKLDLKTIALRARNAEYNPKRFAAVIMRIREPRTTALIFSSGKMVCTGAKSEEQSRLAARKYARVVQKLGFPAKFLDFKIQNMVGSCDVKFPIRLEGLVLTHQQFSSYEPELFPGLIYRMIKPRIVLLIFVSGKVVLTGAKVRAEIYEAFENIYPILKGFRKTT
UniProt Q5JUR7: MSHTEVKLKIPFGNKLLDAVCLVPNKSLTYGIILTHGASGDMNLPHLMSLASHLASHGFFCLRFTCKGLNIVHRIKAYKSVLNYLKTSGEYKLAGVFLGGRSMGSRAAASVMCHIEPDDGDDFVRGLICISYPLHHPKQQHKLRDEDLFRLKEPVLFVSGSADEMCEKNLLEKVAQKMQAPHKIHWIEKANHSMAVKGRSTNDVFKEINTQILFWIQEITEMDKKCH
UniProt O95455: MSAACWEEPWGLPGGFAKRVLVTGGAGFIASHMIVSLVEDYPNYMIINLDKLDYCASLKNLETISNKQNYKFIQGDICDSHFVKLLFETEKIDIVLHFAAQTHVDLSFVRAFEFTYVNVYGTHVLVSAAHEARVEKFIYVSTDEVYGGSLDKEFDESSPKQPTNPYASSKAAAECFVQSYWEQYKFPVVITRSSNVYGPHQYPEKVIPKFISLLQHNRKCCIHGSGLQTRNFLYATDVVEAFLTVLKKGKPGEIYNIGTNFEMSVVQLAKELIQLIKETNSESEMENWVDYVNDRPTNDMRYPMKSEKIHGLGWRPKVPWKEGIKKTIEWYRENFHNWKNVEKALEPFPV
UniProt Q5TEJ8: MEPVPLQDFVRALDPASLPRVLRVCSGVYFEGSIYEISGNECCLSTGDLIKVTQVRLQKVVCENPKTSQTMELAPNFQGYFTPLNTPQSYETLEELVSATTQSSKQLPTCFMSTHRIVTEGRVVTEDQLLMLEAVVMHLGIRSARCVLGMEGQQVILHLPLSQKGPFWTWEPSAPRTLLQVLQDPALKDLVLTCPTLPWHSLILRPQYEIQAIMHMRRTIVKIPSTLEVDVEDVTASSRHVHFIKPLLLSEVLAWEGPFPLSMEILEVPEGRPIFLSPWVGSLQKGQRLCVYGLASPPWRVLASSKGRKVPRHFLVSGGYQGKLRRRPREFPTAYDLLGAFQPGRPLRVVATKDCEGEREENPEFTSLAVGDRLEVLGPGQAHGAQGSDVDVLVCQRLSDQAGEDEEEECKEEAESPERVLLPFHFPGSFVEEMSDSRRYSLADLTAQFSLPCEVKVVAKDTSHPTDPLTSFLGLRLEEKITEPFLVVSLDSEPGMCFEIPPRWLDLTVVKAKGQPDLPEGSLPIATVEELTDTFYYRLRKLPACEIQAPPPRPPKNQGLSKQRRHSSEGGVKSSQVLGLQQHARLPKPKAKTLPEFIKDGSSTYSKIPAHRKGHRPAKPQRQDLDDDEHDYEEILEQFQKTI
UniProt Q14188: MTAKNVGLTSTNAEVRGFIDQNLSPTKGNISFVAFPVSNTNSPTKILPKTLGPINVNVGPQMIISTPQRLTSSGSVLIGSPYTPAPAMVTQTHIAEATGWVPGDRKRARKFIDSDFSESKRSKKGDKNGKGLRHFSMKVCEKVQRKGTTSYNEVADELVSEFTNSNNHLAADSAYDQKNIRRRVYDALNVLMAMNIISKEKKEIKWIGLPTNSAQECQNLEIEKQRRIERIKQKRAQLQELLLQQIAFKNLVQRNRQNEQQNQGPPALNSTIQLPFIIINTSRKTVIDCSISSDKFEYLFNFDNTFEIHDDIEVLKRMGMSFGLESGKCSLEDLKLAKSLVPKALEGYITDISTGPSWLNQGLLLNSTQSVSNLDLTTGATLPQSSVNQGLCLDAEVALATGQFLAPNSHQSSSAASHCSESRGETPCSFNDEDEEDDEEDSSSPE

Legend:
Assay in all cases: log2 fold change, soluble protein after heating vs DMSO (PISA); higher = thermal stabilisation; K562 cells, 10 uM, 30 min; active = over 0.2 and 3.5 SD of the protein, either way, in both replicates (recomputed)
[1] = compound: CC1=C(C=C(C=C1)NC(=O)C2=CC(=CC=C2)C(C)(C)C#N)NC3=CC4=C(C=C3)N=CN(C4=O)C
In short: (§1)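 K562 cells (2×10^6 cells/mL) were treated with 10 μM compound for 30 min, and aliquots were heated for 3 min over 48°C-58°C. Pooled aliquots were extracted in PBS with 0.5% NP-40 at 4°C, and the supernatant after 21,000xg for 90 min was measured by TMTpro 16plex LC-MS/MS with channel sums equalised. Reported thermal stability, relative to control samples and from duplicates, is a log2 fold change.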

[2] = compound: CC1=NC(=CC=C1)C2=C(N=C(N2)C(C)(C)C)C3=CC4=NC=CN=C4C=C3
In short: as §1

[3] = compound: CCCc1cc(C)[nH]c(=O)c1CNC(=O)c1cc(-c2ccnc(N3CCN(C)CC3)c2)cc2c1cnn2C(C)C
In short: as §1

barasertib = compound: CCN(CCCOc1ccc2c(Nc3cc(CC(=O)Nc4cccc(F)c4)[nH]n3)ncnc2c1)CCOP(=O)(O)O [barasertib]
In short: as §1

[4] = compound: CC[C@@H]1C(=O)N(C)c2cnc(Nc3ccc(C(=O)NC4CCN(C)CC4)cc3OC)nc2N1C1CCCC1
In short: as §1

[5] = compound: CC[C@H](C)N1C=C(C2=C(C=C(C=C21)C3=CN=C(C=C3)N4CCNCC4)C(=O)NCC5=C(C=C(NC5=O)C)C)C
In short: as §1

rosiglitazone = compound: CN(CCOC1=CC=C(C=C1)C[C@H]2C(=O)NC(=O)S2)C3=CC=CC=N3 (racemic) [rosiglitazone]
In short: as §1

[6] = compound: CN1C2=C(C3=C1C(=O)N(N=C3)CC4=CC(=CC=C4)N)SC(=C2)S(=O)C
In short: as §1

[7] = compound: CC1=C(C=C(C=C1)NC(=O)C2=CC(=CC=C2)N(C)C)NC(=O)C3=CC=C(C=C3)O
In short: as §1

Nexturastat A = compound: CCCCN(Cc1ccc(C(=O)NO)cc1)C(=O)Nc1ccccc1 [Nexturastat A]
In short: as §1

epoxomicin = compound: CC[C@H](C)[C@@H](C(=O)N[C@@H]([C@@H](C)O)C(=O)N[C@@H](CC(C)C)C(=O)[C@]1(CO1)C)NC(=O)[C@H]([C@@H](C)CC)N(C)C(=O)C [epoxomicin]
In short: as §1

givinostat = compound: CCN(CC)Cc1ccc2cc(COC(=O)Nc3ccc(C(=O)NO)cc3)ccc2c1 [givinostat]
In short: as §1

[8] = compound: CCn1c(C(=O)N(C2CC2)C2CC2)cc2c3c(ncn3C)c(Nc3cc(C)n(C)n3)nc21
In short: as §1

[9] = compound: CCn1cc(-c2ccnc3[nH]c(-c4cccc(CN(C)C)c4)cc23)c(-c2ccc(NC(=O)N(C)C)cc2)n1
In short: as §1

[10] = compound: CN1CCC(CNc2ccc3ncc(-c4cccc(OC(F)(F)F)c4)n3n2)CC1
In short: as §1

vemurafenib = compound: CCCS(=O)(=O)Nc1ccc(F)c(C(=O)c2c[nH]c3ncc(-c4ccc(Cl)cc4)cc23)c1F [vemurafenib]
In short: as §1

[11] = compound: CN(C)CC(=O)Nc1ccc2[nH]c(=O)c3ccccc3c2c1
In short: as §1

[12] = compound: CC1=CC=C(C=C1)SC2=C3C=C(SC3=CN=C2)C(=O)N
In short: as §1

[13] = compound: CCCS(=O)(=O)Nc1ccc(F)c(C(=O)c2c[nH]c3ncc(Cl)cc23)c1F
In short: as §1

volasertib = compound: CC[C@@H]1C(=O)N(C)c2cnc(Nc3ccc(C(=O)N[C@H]4CC[C@H](N5CCN(CC6CC6)CC5)CC4)cc3OC)nc2N1C(C)C [volasertib]
In short: as §1

Measured: log2 fold change

TBC1D2B (UniProt Q9UPU7)
inactive: [1] -0.035 | [2] -0.123 | [3] 0.017 | barasertib 0.071 | [4] -0.05 | [5] -0.025 | rosiglitazone 0.144 | [6] 0.166

TCAF2 (UniProt A6NFQ2)
inactive: [7] -0.282 | [2] -0.028 | Nexturastat A -0.078 | [4] 0.275 | [5] -0.287 | epoxomicin -0.215

TEX10 (UniProt Q9NXF1)
inactive: [1] -0.055 | givinostat -0.128 | barasertib 0.15 | [4] 0.791 | [8] -0.156 | [9] -0.075 | rosiglitazone 0.301 | [10] 0.033

TC2N (UniProt Q8N9U0)
inactive: [7] 0.077 | vemurafenib 0.063 | [3] -0.098 | [5] 0.029 | [11] -0.194 | [6] 0.073

THAP9 (UniProt Q9H5L6)
inactive: [7] 0.017 | [2] -0.065 | [3] -0.463 | barasertib 0.121 | [5] -0.167 | [6] -0.039

TESMIN (UniProt Q9Y4I5)
inactive: [5] 0.063

TBCK (UniProt Q8TEA7)
inactive: [12] -0.077 | [2] -0.106 | [13] 0.19 | givinostat 0.058 | volasertib -0.051 | [5] -0.026 | [8] -0.006 | [9] 0.182 | [6] -0.023 | [10] -0.118

TDP1 (UniProt Q9NUW8)
inactive: givinostat 0.112

TEPSIN (UniProt Q96N21)
inactive: [2] -0.169

TCIRG1 (UniProt Q13488)
inactive: [7] -0.055 | [2] -0.052 | Nexturastat A 0.287 | givinostat 0.03 | barasertib 0.005 | [4] -0.094 | [5] 0.011 | epoxomicin 0.138 | [8] -0.009 | [9] 0.09 | rosiglitazone -0.143 | [6] 0.431 | [10] 0.091

TLCD3A (UniProt Q8TBR7)
inactive: [1] -0.058 | [12] 0.003 | vemurafenib 0.009 | [13] 0.004 | [4] 0.164 | volasertib 0.003 | [9] 0.039 | [11] -0.02 | [6] 0.009 | [10] 0.022

TCEAL8 (UniProt Q8IYN2)
inactive: [2] 0.101 | [3] -0.065 | givinostat 0.057 | [5] 0.027 | [8] -0.068 | [9] -0.123 | [10] 0.012

TBC1D25 (UniProt Q3MII6)
inactive: vemurafenib -0.054 | givinostat 0.036 | barasertib 0.42 | [8] 0.12 | [11] 0.068 | rosiglitazone -0.073

TBP (UniProt P20226)
inactive: [7] -0.04 | [12] -0.056 | [2] -0.071 | Nexturastat A 0.163 | vemurafenib 0.02 | [13] -0.026 | [3] -0.154 | barasertib -0.067 | [4] 0.087 | volasertib 0.073 | [5] 0.095 | epoxomicin -0.332 | [11] -0.227 | [6] 0.001

TENM4 (UniProt Q6N022)
inactive: [12] -0.028 | [2] 0.048 | Nexturastat A -0.156 | [13] -0.042 | volasertib -0.032 | epoxomicin -0.087 | [9] -0.038 | [6] 0.179 | [10] -0.005

TCF3 isoform 2 (UniProt P15923)
inactive: [7] -0.094 | [2] -0.046 | vemurafenib -0.129 | [4] 0.202 | [9] 0.011 | [11] 0.03 | [10] -0.114

5 neighbouring entries from above, quoted:
TCIRG1 (UniProt Q13488)
inactive: [7] -0.055 | [2] -0.052 | Nexturastat A 0.287 | givinostat 0.03 | barasertib 0.005 | [4] -0.094 | [5] 0.011 | epoxomicin 0.138 | [8] -0.009 | [9] 0.09 | rosiglitazone -0.143 | [6] 0.431 | [10] 0.091

TLCD3A (UniProt Q8TBR7)
inactive: [1] -0.058 | [12] 0.003 | vemurafenib 0.009 | [13] 0.004 | [4] 0.164 | volasertib 0.003 | [9] 0.039 | [11] -0.02 | [6] 0.009 | [10] 0.022

TCEAL8 (UniProt Q8IYN2)
inactive: [2] 0.101 | [3] -0.065 | givinostat 0.057 | [5] 0.027 | [8] -0.068 | [9] -0.123 | [10] 0.012

TBC1D25 (UniProt Q3MII6)
inactive: vemurafenib -0.054 | givinostat 0.036 | barasertib 0.42 | [8] 0.12 | [11] 0.068 | rosiglitazone -0.073

TBP (UniProt P20226)
inactive: [7] -0.04 | [12] -0.056 | [2] -0.071 | Nexturastat A 0.163 | vemurafenib 0.02 | [13] -0.026 | [3] -0.154 | barasertib -0.067 | [4] 0.087 | volasertib 0.073 | [5] 0.095 | epoxomicin -0.332 | [11] -0.227 | [6] 0.001

Continued.

TEX30 (UniProt Q5JUR7)
inactive: [7] -0.182 | [12] 0.047 | [2] -0.062 | Nexturastat A 0.009 | vemurafenib 0.138 | [13] 0.037 | [3] -0.119 | givinostat -0.146 | barasertib 0.019 | volasertib -0.221 | [5] -0.044 | epoxomicin 0.007 | [9] 0.079 | [11] 0.075 | [6] 0.046
active: [10] -0.601

TGDS (UniProt O95455)
inactive: [1] -0.06 | vemurafenib -0.098 | [3] -0.059 | givinostat -0.164 | [5] 0.048 | [8] -0.011 | [9] -0.426 | [11] -0.267 | [6] -0.031 | [10] -0.224

THEMIS2 (UniProt Q5TEJ8)
inactive: [7] 0.123 | [12] -0.008 | [2] -0.079 | Nexturastat A -0.116 | [13] -0.045 | volasertib -0.087 | [5] 0.238 | epoxomicin 0.026 | [9] 0.011 | [6] -0.068 | [10] -0.139

TFDP2 (UniProt Q14188)
inactive: [1] -0.081 | Nexturastat A 0.088 | [3] 0.088 | barasertib -0.047 | [4] -0.071 | epoxomicin -0.061 | rosiglitazone 0.166
